In patent US10160767B2 (Institute of Pharmacology and Toxicology Academy of …, priority 2014, dated 2018):

Tested on: multi-drug resistant tumor cell line MES-SA
Assay: Inhibition of drug-resistant tumor cell line, Cell Titer-Glo cell viability; therapeutic index against MRC5 cells
Format: cell-based, human
Details: ratio of EC50 for MRC5 cell to EC50 for MES-SA cell
Experimental: The activity of example compounds to multi-drug resistant tumor cell line MES-SA was evaluated.
Experimental materials: DMEM high-glucose cell culture media (Hyclone Company), fetal calf serum (FBS) (Gibco Company), penicillin and streptomycin were purchased from North China Pharmaceutical Co., Ltd, phosphate buffer saline (PBS) was purchased from Gibco Company, Cell Titer-Glo® cell viability detection reagent was purchased from Promega Company, pancreatin and dimethylsulfoxide (DMSO) were products of Sigma Company. MES-SA cell line (human uterine sarcoma cell line) was purchased from ATCC. MRC5 cell (human embryonic lung fibroblast) was purchased from ATCC.
The cells were inoculated on a 96-well plate with white wall and penetrative bottom (Costar) in amount of 5000 cells per well, cultured at condition of 37° C., 5% CO2 for 24 h. The compounds to be tested were dissolved with DMSO and diluted to 100 mM, to obtain mother liquids of the compounds.
DMEM culture solution containing 2% FBS was used to diluted the compounds, in which concentration gradients were 3, and concentration range was 100 μM to 0.046 μM. The compounds in various dilution degrees were added to the cultured cells on the 96-well plate, 100 μl per well. Culture was performed at 37° C., CO2 for 72 h, supernatant was discarded, and cell viability detection test was performed.
AfterCell Titer-Glo® reaction buffer solution was mixed with isometric substrate, the mixture was added to 96-well plate, 100 μl per well. Cell lysis was induced by horizontally shaking for 4 min. Reaction signal was stabilized by balancing at room temperature for 15 min. Chemiluminescence units in each well of the 96-well plate were detected by using chemiluminescence detector.
Inhibition rates at different dilution degrees of each compound were calculated according to chemiluminescence value of each well, and Origin 8.0 software was used for S-type curve fitting of each compound, and for calculating EC50 value. The ratio of EC50 value of compound for MRC5 cell to EC50 value of compound for MES-SA cell was used as therapeutic index for the compound.

SMILES | Therapeutic index
CO[C@H]1C[C@@H]2CC[C@@H](C)[C@@](O)(O2)C(=O)C(=O)N2CCCC[C@H]2C(=O)O[C@H]([C@H](C)C[C@@H]2CC[C@@H](OC(=O)C[n+]3ccc(C)cc3)[C@H](OC)C2)CC(=O)[C@H](C)/C=C(\C)[C@@H](O)[C@@H](OC)C(=O)[C@H](C)C[C@H](C)/C=C/C=C/C=C/1C.[Br-] [Example 13, 42-O-carbonylmethyl-(4-methyl-pyridine bromide salt-1-yl)-rapamycin] | >1559.0
CO[C@H]1C[C@@H]2CC[C@@H](C)[C@@](O)(O2)C(=O)C(=O)N2CCCC[C@H]2C(=O)O[C@H]([C@H](C)C[C@@H]2CC[C@@H](OC(=O)C[n+]3cscc3C)[C@H](OC)C2)CC(=O)[C@H](C)/C=C(\C)[C@@H](OC(=O)C[n+]2cscc2C)[C@@H](OC)C(=O)[C@H](C)C[C@H](C)/C=C/C=C/C=C/1C.[Br-].[Br-] [Example 1, 31,42-O-carbonylmethyl-(4-methyl-thiazole bromide salt-3-yl)-rapamycin] | >259.8
CO[C@H]1C[C@@H]2CC[C@@H](C)[C@@](O)(O2)C(=O)C(=O)N2CCCC[C@H]2C(=O)O[C@H]([C@H](C)C[C@@H]2CC[C@@H](O)[C@H](OC)C2)CC(=O)[C@H](C)/C=C(\C)[C@@H](OC(=O)C[n+]2csc(C)c2C)[C@@H](OC)C(=O)[C@H](C)C[C@H](C)/C=C/C=C/C=C/1C.[Br-] [Example 6, 31-O-carbonylmethyl-(4,5-dimethyl-thiazole bromide salt-3-yl)-rapamycin] | >455.1
CO[C@H]1C[C@@H]2CC[C@@H](C)[C@@](O)(O2)C(=O)C(=O)N2CCCC[C@H]2C(=O)O[C@H]([C@H](C)C[C@@H]2CC[C@@H](OC(=O)C[n+]3csc(C)c3C)[C@H](OC)C2)CC(=O)[C@H](C)/C=C(\C)[C@@H](O)[C@@H](OC)C(=O)[C@H](C)C[C@H](C)/C=C/C=C/C=C/1C.[Br-] [Example 5, 42-O-carbonylmethyl-(4,5-dimethyl-thiazole bromide salt-3-yl)-rapamycin] | >1371.1
CO[C@H]1C[C@@H]2CC[C@@H](C)[C@@](O)(O2)C(=O)C(=O)N2CCCC[C@H]2C(=O)O[C@H]([C@H](C)C[C@@H]2CC[C@@H](OC(=O)C[n+]3ccccc3)[C@H](OC)C2)CC(=O)[C@H](C)/C=C(\C)[C@@H](O)[C@@H](OC)C(=O)[C@H](C)C[C@H](C)/C=C/C=C/C=C/1C.[Br-] [Example 10, 42-O-carbonylmethyl-(pyridine bromide salt-1-yl)-rapamycin] | 3.4
CO[C@H]1C[C@@H]2CC[C@@H](C)[C@@](O)(O2)C(=O)C(=O)N2CCCC[C@H]2C(=O)O[C@H]([C@H](C)C[C@@H]2CC[C@@H](O)[C@H](OC)C2)CC(=O)[C@H](C)/C=C(\C)[C@@H](OC(=O)C[n+]2cscc2C)[C@@H](OC)C(=O)[C@H](C)C[C@H](C)/C=C/C=C/C=C/1C.[Br-] [Example 3, 31-O-carbonylmethyl-(4-methyl-thiazole bromide salt-3-yl)-rapamycin] | >1501.1
CO[C@H]1C[C@@H]2CC[C@@H](C)[C@@](O)(O2)C(=O)C(=O)N2CCCC[C@H]2C(=O)O[C@H]([C@H](C)C[C@@H]2CC[C@@H](OC(=O)C[n+]3cccc(C)c3)[C@H](OC)C2)CC(=O)[C@H](C)/C=C(\C)[C@@H](O)[C@@H](OC)C(=O)[C@H](C)C[C@H](C)/C=C/C=C/C=C/1C.[Br-] [Example 11, 42-O-carbonylmethyl-(3-methyl-pyridine bromide salt-1-yl)-rapamycin] | >1888.7
CO[C@H]1C[C@@H]2CC[C@@H](C)[C@@](O)(O2)C(=O)C(=O)N2CCCC[C@H]2C(=O)O[C@H]([C@H](C)C[C@@H]2CC[C@@H](O)[C@H](OC)C2)CC(=O)[C@H](C)/C=C(\C)[C@@H](OC(=O)C[n+]2ccc(C)cc2)[C@@H](OC)C(=O)[C@H](C)C[C@H](C)/C=C/C=C/C=C/1C.[Br-] [Example 17, 31-O-carbonylmethyl-(4-methyl-pyridine bromide salt-1-yl)-rapamycin] | >317.7
CO[C@H]1C[C@@H]2CC[C@@H](C)[C@@](O)(O2)C(=O)C(=O)N2CCCC[C@H]2C(=O)O[C@H]([C@H](C)C[C@@H]2CC[C@@H](OC(=O)C[n+]3cccc(C)c3)[C@H](OC)C2)CC(=O)[C@H](C)/C=C(\C)[C@@H](OC(=O)C[n+]2cccc(C)c2)[C@@H](OC)C(=O)[C@H](C)C[C@H](C)/C=C/C=C/C=C/1C.[Br-].[Br-] [Example 9, 31,42-O-carbonylmethyl-(3-methyl-pyridine bromide salt-1-yl)-rapamycin] | 12.1
CO[C@H]1C[C@@H]2CC[C@@H](C)[C@@](O)(O2)C(=O)C(=O)N2CCCC[C@H]2C(=O)O[C@H]([C@H](C)C[C@@H]2CC[C@@H](OC(=O)C[n+]3cccc(O)c3)[C@H](OC)C2)CC(=O)[C@H](C)/C=C(\C)[C@@H](OC(=O)C[n+]2cccc(O)c2)[C@@H](OC)C(=O)[C@H](C)C[C@H](C)/C=C/C=C/C=C/1C.[Br-].[Br-] [Example 8, 31,42-O-carbonylmethyl-(3-hydroxy-pyridine bromide salt-1-yl)-rapamycin] | >1441.6
CO[C@H]1C[C@@H]2CC[C@@H](C)[C@@](O)(O2)C(=O)C(=O)N2CCCC[C@H]2C(=O)O[C@H]([C@H](C)C[C@@H]2CC[C@@H](OC(=O)C[n+]3ccccc3)[C@H](OC)C2)CC(=O)[C@H](C)/C=C(\C)[C@@H](OC(=O)C[n+]2ccccc2)[C@@H](OC)C(=O)[C@H](C)C[C@H](C)/C=C/C=C/C=C/1C.[Br-].[Br-] [Example 7, 31,42-O-carbonylmethyl-(pyridine bromide salt-1-yl)-rapamycin] | >442.7
CO[C@H]1C[C@@H]2CC[C@@H](C)[C@@](O)(O2)C(=O)C(=O)N2CCCC[C@H]2C(=O)O[C@H]([C@H](C)C[C@@H]2CC[C@@H](OC(=O)C[n+]3cscc3C)[C@H](OC)C2)CC(=O)[C@H](C)/C=C(\C)[C@@H](O)[C@@H](OC)C(=O)[C@H](C)C[C@H](C)/C=C/C=C/C=C/1C.[Br-] [Example 2, 42-O-carbonylmethyl-(4-methyl-thiazole bromide salt-3-yl)-rapamycin] | >1811.9
CO[C@H]1C[C@@H]2CC[C@@H](C)[C@@](O)(O2)C(=O)C(=O)N2CCCC[C@H]2C(=O)O[C@H]([C@H](C)C[C@@H]2CC[C@@H](O)[C@H](OC)C2)CC(=O)[C@H](C)/C=C(\C)[C@@H](OC(=O)C[n+]2cccc(C)c2)[C@@H](OC)C(=O)[C@H](C)C[C@H](C)/C=C/C=C/C=C/1C.[Br-] [Example 15, 31-O-carbonylmethyl-(3-methyl-pyridine bromide salt-1-yl)-rapamycin] | >331.5
CO[C@H]1C[C@@H]2CC[C@@H](C)[C@@](O)(O2)C(=O)C(=O)N2CCCC[C@H]2C(=O)O[C@H]([C@H](C)C[C@@H]2CC[C@@H](OC(=O)C[n+]3ccc(C)cc3)[C@H](OC)C2)CC(=O)[C@H](C)/C=C(\C)[C@@H](OC(=O)C[n+]2ccc(C)cc2)[C@@H](OC)C(=O)[C@H](C)C[C@H](C)/C=C/C=C/C=C/1C.[Br-].[Br-] [Example 14, 31,42-O-carbonylmethyl-(4-methyl-pyridine bromide salt-1-yl)-rapamycin] | >2136.8
CO[C@H]1C[C@@H]2CC[C@@H](C)[C@@](O)(O2)C(=O)C(=O)N2CCCC[C@H]2C(=O)O[C@H]([C@H](C)C[C@@H]2CC[C@@H](O)[C@H](OC)C2)CC(=O)[C@H](C)/C=C(\C)[C@@H](OC(=O)C[n+]2ccccc2)[C@@H](OC)C(=O)[C@H](C)C[C@H](C)/C=C/C=C/C=C/1C.[Br-] [Example 16, 31-O-carbonylmethyl-(pyridine bromide salt-1-yl)-rapamycin] | >364.8
CO[C@H]1C[C@@H]2CC[C@@H](C)[C@@](O)(O2)C(=O)C(=O)N2CCCC[C@H]2C(=O)O[C@H]([C@H](C)C[C@@H]2CC[C@@H](OC(=O)C[n+]3csc(C)c3C)[C@H](OC)C2)CC(=O)[C@H](C)/C=C(\C)[C@@H](OC(=O)C[n+]2csc(C)c2C)[C@@H](OC)C(=O)[C@H](C)C[C@H](C)/C=C/C=C/C=C/1C.[Br-].[Br-] [Example 4, 31,42-O-carbonylmethyl-(4,5-dimethyl-thiazole bromide salt-3-yl)-rapamycin] | >787.2
CO[C@H]1C[C@@H]2CC[C@@H](C)[C@@](O)(O2)C(=O)C(=O)N2CCCC[C@H]2C(=O)O[C@H]([C@H](C)C[C@@H]2CC[C@@H](OC(=O)C[n+]3cccc(O)c3)[C@H](OC)C2)CC(=O)[C@H](C)/C=C(\C)[C@@H](O)[C@@H](OC)C(=O)[C@H](C)C[C@H](C)/C=C/C=C/C=C/1C.[Br-] [Example 12, 42-O-carbonylmethyl-(3-hydroxy-pyridine bromide salt-1-yl)-rapamycin] | >146.5
